Some of these results come from one statement about several compounds together.
System: human DCs
Experiment: Cytokine ELISA (IL-12p70, IL-6) of culture supernatants of human monocyte-derived DCs
Format: cell-based
Settings: DCs cultured for 12 h in the presence of LPS or MPL alone

Q: Lipopolysaccharide [LPS] was tested. Which IL-12 production did it give?
A: < 30 pg/mL

Q: How did the IL-12 production turn out when monophosphoryl lipid A [MPL] was run?
A: < 30 pg/mL

— patent publication US9976122B2, “Methods and compositions for generating an immune response by inducing CD40 and pattern recognition receptor adapters” (BAYLOR COLLEGE OF MEDICINE, priority 2008, dated 2018)
